Experimental data from publication PMC13267291, “In vivo functional profiling and structural characterization of the human GLP1R A316T variant” (Science Advances, 2026).

The chains behind the UniProt entries cited, without tags or fusion partners. Where a name states a change or a piece, a line headed by the entry shows the natural chain unless it says otherwise. A line that says so, or that is headed by a name, gives the form on record, which may keep a tag or linker. Residues count along the entry.
SNAP/FLAG-hGLP1R^WT (P43220, residues 24-463): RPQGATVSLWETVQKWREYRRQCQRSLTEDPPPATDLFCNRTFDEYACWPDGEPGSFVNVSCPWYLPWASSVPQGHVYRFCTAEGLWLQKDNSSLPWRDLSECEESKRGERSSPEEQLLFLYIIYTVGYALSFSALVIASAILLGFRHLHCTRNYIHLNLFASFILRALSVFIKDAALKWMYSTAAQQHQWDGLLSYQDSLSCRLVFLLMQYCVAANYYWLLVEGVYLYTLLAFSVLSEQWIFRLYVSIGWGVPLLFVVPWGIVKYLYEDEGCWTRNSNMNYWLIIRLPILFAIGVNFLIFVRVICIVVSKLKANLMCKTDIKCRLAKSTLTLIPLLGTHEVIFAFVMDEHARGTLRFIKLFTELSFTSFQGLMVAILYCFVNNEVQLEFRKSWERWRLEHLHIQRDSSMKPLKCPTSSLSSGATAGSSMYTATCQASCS
SNAP/FLAG-hGLP1R^A316T (P43220, form named): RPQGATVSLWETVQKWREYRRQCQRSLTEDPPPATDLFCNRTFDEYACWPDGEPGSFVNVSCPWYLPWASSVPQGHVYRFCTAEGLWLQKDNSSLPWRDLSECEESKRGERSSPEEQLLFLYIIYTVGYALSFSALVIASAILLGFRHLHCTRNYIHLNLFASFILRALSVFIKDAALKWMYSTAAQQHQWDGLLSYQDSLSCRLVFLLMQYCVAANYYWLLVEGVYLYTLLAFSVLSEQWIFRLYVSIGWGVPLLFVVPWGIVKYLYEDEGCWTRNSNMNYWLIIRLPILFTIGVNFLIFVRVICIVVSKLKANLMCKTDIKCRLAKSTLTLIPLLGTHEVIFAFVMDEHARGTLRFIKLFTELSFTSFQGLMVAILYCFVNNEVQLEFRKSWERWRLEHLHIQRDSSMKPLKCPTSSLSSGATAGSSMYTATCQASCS
UniProt P0C6C0: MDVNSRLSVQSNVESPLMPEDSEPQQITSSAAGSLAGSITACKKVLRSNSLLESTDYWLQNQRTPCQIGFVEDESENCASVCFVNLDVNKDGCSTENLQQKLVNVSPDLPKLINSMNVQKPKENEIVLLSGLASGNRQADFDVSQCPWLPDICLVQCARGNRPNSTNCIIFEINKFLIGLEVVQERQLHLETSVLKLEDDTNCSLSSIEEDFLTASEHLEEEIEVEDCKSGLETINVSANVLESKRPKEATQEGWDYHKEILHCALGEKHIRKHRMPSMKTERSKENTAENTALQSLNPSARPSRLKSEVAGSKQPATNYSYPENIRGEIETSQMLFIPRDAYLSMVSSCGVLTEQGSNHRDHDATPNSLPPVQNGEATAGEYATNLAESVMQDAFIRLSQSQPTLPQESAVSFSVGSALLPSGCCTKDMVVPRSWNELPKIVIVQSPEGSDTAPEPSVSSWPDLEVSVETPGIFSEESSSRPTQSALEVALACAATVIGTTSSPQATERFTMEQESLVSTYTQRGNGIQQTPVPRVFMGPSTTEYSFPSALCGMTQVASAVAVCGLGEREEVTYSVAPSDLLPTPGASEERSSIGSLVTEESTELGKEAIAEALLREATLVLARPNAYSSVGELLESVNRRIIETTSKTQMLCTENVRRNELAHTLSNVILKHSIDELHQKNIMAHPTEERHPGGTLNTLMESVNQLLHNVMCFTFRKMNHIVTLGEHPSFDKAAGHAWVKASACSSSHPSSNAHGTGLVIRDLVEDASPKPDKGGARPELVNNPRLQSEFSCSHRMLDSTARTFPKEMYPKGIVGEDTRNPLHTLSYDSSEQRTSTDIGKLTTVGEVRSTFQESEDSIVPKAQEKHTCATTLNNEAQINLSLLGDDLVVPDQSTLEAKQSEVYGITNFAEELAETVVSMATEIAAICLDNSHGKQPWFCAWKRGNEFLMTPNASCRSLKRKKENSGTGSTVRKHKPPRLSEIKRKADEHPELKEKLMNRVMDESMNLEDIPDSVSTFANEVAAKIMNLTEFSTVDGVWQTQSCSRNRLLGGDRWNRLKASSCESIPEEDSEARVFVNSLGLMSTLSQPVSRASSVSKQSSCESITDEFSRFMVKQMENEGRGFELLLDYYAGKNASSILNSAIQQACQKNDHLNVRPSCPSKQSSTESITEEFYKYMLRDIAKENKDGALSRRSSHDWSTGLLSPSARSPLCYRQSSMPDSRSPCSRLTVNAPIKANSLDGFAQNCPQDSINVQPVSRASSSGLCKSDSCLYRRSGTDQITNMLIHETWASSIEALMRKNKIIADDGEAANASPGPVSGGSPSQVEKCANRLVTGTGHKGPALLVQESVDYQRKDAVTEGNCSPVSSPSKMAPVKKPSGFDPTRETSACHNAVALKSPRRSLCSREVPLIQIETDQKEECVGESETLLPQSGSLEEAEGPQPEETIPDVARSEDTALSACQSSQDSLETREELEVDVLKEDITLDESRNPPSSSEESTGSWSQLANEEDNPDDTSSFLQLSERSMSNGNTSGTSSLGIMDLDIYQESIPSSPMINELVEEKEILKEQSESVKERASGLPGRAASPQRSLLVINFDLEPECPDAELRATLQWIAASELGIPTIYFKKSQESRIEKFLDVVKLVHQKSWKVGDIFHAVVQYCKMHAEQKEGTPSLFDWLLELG
UniProt Q9Z269: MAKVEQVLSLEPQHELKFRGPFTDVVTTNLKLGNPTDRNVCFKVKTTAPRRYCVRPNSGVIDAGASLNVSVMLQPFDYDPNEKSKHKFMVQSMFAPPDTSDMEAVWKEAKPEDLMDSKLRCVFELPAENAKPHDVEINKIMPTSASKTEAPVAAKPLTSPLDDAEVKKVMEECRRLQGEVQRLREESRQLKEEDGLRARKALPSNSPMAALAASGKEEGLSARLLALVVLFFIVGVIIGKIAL

Assays:
[1] = target: SNAP/FLAG-hGLP1R^A316T (human) (UniProt P43220); experiment: affinity purification with mass spectrometry; interactome of SNAP/FLAG-hGLP1R^WT or ^A316T immunoprecipitated from INS-1 832/3 Glp1r−/− cells, vehicle versus GLP-1 or exendin-4 stimulation; normalized to isolated receptor amounts per immunoprecipitate
[2] = target: SNAP/FLAG-hGLP1R^WT (human) (UniProt P43220); experiment: as above

binding [1]	binding [2]	Substance
binds	binds	SPHKAP (from UniProt P0C6C0 1-1683)
binds	binds	VAPB (from UniProt Q9Z269 1-243)

Results are given in words; binding and its absence hold for the method and conditions named. Binding seen in cells or lysates may run through a third protein. A yes stands for co-enrichment or nearness to the bait. Other partners may have been found.
